Laboratory results: publication PMC8500839, “Structures of outer-arm dynein array on microtubule doublet reveal a motor coordination mechanism” (Nature Structural & Molecular Biology, 2021)
Results are given in words; binding and its absence hold for the method and conditions named. Binding calls can cover weak binding; strength is not graded here.

T1: outer-arm dynein intermediate chain IC3 (T. thermophila, UniProt Q23FU1 1-670)
T1 construct: outer-arm dynein intermediate chain 3, T. thermophila, native subunit; source: purified from T. thermophila cilia as a subunit of native OAD (high salt extraction, sucrose gradient, ion exchange)
T1 sequence (looked up): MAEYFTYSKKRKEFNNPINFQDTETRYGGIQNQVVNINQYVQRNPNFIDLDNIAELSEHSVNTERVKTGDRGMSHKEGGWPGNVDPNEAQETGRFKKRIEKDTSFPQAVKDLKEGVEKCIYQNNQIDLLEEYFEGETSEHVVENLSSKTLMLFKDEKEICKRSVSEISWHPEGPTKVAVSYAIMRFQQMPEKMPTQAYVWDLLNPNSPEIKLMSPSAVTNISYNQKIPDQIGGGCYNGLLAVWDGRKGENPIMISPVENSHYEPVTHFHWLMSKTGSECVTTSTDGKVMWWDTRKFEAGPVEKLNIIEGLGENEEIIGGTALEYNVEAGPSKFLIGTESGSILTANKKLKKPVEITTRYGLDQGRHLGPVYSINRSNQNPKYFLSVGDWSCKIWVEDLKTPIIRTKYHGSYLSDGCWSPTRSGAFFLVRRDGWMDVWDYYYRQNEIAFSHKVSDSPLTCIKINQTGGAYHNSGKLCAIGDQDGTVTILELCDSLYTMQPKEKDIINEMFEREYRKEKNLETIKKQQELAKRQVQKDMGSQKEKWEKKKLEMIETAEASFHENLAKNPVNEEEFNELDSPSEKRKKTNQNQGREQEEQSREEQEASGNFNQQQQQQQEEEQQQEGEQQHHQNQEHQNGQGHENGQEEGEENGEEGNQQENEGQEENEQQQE

T2: outer-arm dynein intermediate chain IC2 (T. thermophila, UniProt I7M008 1-667)
T2 construct: outer-arm dynein intermediate chain 2, T. thermophila, native subunit; source: purified from T. thermophila cilia as a subunit of native OAD (high salt extraction, sucrose gradient, ion exchange)
T2 sequence (looked up): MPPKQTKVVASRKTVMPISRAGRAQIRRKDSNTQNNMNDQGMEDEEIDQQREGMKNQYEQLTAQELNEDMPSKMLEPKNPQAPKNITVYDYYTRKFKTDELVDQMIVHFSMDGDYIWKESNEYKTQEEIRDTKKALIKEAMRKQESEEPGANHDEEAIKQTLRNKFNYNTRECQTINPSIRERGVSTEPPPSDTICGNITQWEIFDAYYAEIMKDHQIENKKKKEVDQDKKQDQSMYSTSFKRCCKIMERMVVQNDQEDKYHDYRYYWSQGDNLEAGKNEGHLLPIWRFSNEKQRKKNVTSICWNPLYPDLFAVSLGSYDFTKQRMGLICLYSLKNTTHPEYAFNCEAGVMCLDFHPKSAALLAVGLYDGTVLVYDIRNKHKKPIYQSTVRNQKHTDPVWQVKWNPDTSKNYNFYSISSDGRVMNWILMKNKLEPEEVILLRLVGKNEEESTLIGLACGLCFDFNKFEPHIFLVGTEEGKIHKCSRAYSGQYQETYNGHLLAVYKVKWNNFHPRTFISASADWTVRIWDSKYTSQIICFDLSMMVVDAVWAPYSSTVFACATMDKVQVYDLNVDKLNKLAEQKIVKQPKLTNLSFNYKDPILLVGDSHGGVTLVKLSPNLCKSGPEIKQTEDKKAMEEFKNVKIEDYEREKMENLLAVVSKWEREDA

B1: LC7-a (unnamed LC7A homolog, TTHERM_00348650) (protein, UniProt Q22MV2 1-159)
chain: MIYKTSKEIQKSDQRIIQQRVENSIINNQIYQKSLKRKTSKRKVRHQANKKNFQKEMSEVEDTLNRIKTHKTVLGYLIVNSEGGVVRGAFKDEEESKNIANSIPLLTKKARSVVRDLDPTNDLVFLRIQTKLNEIMVAPDDEFSLIVIQTKGEKRDEND

Experiments:
Experiment in all cases: cryo-EM structure; freshly purified native OAD (not cross-linked) reconstituted on MTD in 20 mM HEPES pH 7.4, 100 mM KCl, 5 mM MgSO4, 1 mM DTT, on ice 45 min; apo state, no docking complex; two classes MTBS-1 and MTBS-2; MTD lattice refined from the same data; both purified
[1] = molecular target: T1, outer-arm dynein intermediate chain IC3
[2] = molecular target: T2, outer-arm dynein intermediate chain IC2
[3] = molecular target: LC7-b (LC7B) (T. thermophila)

Row | Molecule | binding [1] | binding [2] | binding [3]
1 | LC7-b (LC7B) (T. thermophila) | binds | binds | –
2 | B1 | – | – | binds
